Out of some 360,000 compounds screened, about 780 (0.22%) were called active. This list was built around the results that the source calls inconclusive (neither active nor inactive); the mix of calls is not that of the screen. Cut-off read from the data, not from the text of the source: active = inhibition above about 35% (passing the limit was not always enough); inconclusive = no clear call, values can overlap the other calls.
System: Botulinum neurotoxin type F light chain protease (Clostridium botulinum)
Test: BoNT/F light chain protease inhibitors, primary screen, biochemical, flow cytometry, MLPCN library (AID 588497); note: plate controls were buffer without enzyme for full effect and enzyme alone for no effect
Conditions: Multiplex microsphere protease cleavage assay, at 10 µM, hits give high values

Row | Compound | inhibition
1 | CCOc1ccc(C(=O)N2CCN(c3ccccn3)CC2)cc1OCC | inconclusive: -15.8%
2 | CC(C)CC(=O)NC(=S)Nc1ccc(N2CCN(C(=O)c3cccs3)CC2)cc1 | inconclusive: 8.4%
3 | COc1ccc(F)cc1S(=O)(=O)NCc1ccccc1 | inactive: -4.5%
4 | O=[N+]([O-])c1ccc(Nc2ccccc2O)c2nonc12 | inconclusive: 18.5%
5 | CCOC(=O)c1cn2nc(Oc3ccc(NC(C)=O)cc3)ccc2n1 | inconclusive: 84.9%
6 | CSCCC(NC(=O)c1ccco1)C(=O)OCc1cc([N+](=O)[O-])cc2c1OCOC2 (stereo unspecified) | inactive: 0.5%
7 | COc1cc(N2CCCC2)c(OC)cc1/C=C1/NC(=S)NC1=O | inconclusive: -18.4%
8 | COc1ccc(S(=O)(=O)N2CCOCC2)cc1NC(=O)Cc1ccc(F)cc1 | inactive: 8.2%
9 | CC(C)(C)OC(=O)NCCCCCC(=O)N/N=C/c1coc2ccccc2c1=O | inconclusive: -44.6%
10 | O=C(COc1ccccc1)NCC(=O)N1CCCCCC1 | inactive: 0.6%
11 | CCNC(=S)Nc1ccc(N2CCCCC2)cc1 | inactive: -35.3%
12 | CC(=O)Nc1ccc2c(c1)nc(C)n2Cc1ccccc1 | inconclusive: 21.3%
13 | Cc1cnc(C(=O)OCC(=O)N2CCC(C)CC2)cn1 | inactive: -13.9%
14 | CC1CCCC(CC(=O)O)(CC(=O)O)C1 (stereo unspecified) | inconclusive: 1.5%
15 | O=C(O)CCC(=O)Nc1ccc(-c2nc3ccc(C(=O)c4ccccc4)cc3[nH]2)cc1 | inconclusive: -13.6%
16 | Cc1cc(Nc2ccccc2Cl)c2ccccc2n1 | inconclusive: 22.4%
17 | c1ccc2c(c1)CCCn1nnnc1-2 | inconclusive: 0.2%
18 | COc1cccc(C(=O)C(C#N)=C(SC)SC)c1 | inconclusive: 58.9%
19 | O=C(N/C=C/n1cnc2cc(C(F)(F)F)ccc21)c1ccccc1 | inactive: 1.5%
20 | COc1cccc(CN(C)C(=O)c2ccc3nccnc3c2)c1 | inactive: -15%
21 | CN1c2ccc(Cl)cc2C(=O)NC1c1ccc([N+](=O)[O-])s1 (stereo unspecified) | inconclusive: 1%

Row | Compound | inhibition
22 | O=C(NCCCN1CCN(Cc2ccccc2Cl)CC1)Nc1ccccc1 | inconclusive: 35.7%
23 | CCOC(=O)c1sc(NC(=O)c2ccccc2OC)nc1C | inactive: 5.3%
24 | Cc1occc1-c1nnc(SCC(=O)Nc2ccccn2)o1 | inactive: 1.1%
25 | O=C(NCCc1cnc[nH]1)c1ccc(-c2ccccc2)cc1 | inactive: 16.1%
26 | Cc1nc(C)n(CC(=O)c2ccc(Cl)cc2Cl)n1 | inconclusive: 37.3%
27 | CCOC(=O)C1CCN(C(c2cc3ccc(C)c(C)c3[nH]c2=O)c2nnnn2C2CCCCC2)CC1 (stereo unspecified) | active: 38.3%
28 | COC(=O)C[C@H](NC(=O)Cn1cc(C)c(=O)[nH]c1=O)C(=O)OC | inactive: -0.1%
29 | Cc1cccc(C(=O)c2cnc3ccccc3c2-c2ccccc2)c1 | inactive: -10%
30 | CC(C)(CC(=O)O)CC(=O)NNc1ncccc1C#N | inconclusive: -5.1%
31 | CCCOc1ccc(Cn2c(=O)oc3ccc(C)cc32)cc1 | inactive: -8.4%
32 | O=C(CN1C(=O)COc2ccc(Cl)cc21)Nc1ccccn1 | inconclusive: 31.9%
33 | CCN(CC)S(=O)(=O)c1ccc(N2CC(C(=O)NC3(C)CCS(=O)(=O)C3)CC2=O)cc1 (stereo unspecified) | inactive: 3.3%
34 | O=C(c1ccccc1F)N1CCN(c2ccc([N+](=O)[O-])cc2-n2cccc2)CC1 | inconclusive: -114%
35 | Cc1ccc2c(c1)N(CCC(=O)NCC1COc3ccccc3O1)C(=O)CO2 (stereo unspecified) | inactive: 3.3%
36 | Cc1ccccc1OCC(=O)N/N=C/c1cn(C)c2ccccc12 | inconclusive: -156%
37 | CCOC(=O)C1=CCC(C(C)(C)C)N(S(=O)(=O)c2ccc(C)cc2)C1 (stereo unspecified) | inactive: -1.7%
38 | CC1CCCN(S(=O)(=O)c2cc3c4c(c2)CCN4C(=O)CC3)C1 (stereo unspecified) | inactive: 2.5%
39 | CCOC(=O)c1sc2nc(N3CCOCC3)c3c(c2c1N)CCCC3 | inconclusive: -6%
40 | CC1=C(C(=O)Nc2ccccc2C)C(c2cccnc2)n2nc(CCCO)nc2N1 (stereo unspecified) | inconclusive: -26.1%
41 | CC(=O)c1cccc(CN(C)CC2CCCN(CCc3ccccc3C)C2)c1 (stereo unspecified) | inconclusive: 2.3%
42 | CCc1ccccc1NC(=O)CN(C)C(=O)c1cc(C2CC2)nn1-c1ccccc1 | inconclusive: -8.9%

Taken from above.
O=C(c1ccccc1F)N1CCN(c2ccc([N+](=O)[O-])cc2-n2cccc2)CC1 – inhibition: inconclusive: -114%
CCN(CC)S(=O)(=O)c1ccc(N2CC(C(=O)NC3(C)CCS(=O)(=O)C3)CC2=O)cc1 (stereo unspecified) – inhibition: inactive: 3.3%

Going on with the list:

Row | Compound | inhibition
43 | CCC(=O)Nc1ccc(C=C(C(C)=O)C(C)=O)cc1 | inconclusive: -30.1%
44 | Cc1ccccc1OCCC(=O)OCC(=O)Nc1ccc(C(N)=O)cc1 | inactive: -6.5%
45 | Cc1ccc(CNCc2ccc3c(c2)OCO3)cc1 | inconclusive: -22.4%
46 | Cc1cc(Br)ccc1OCCOCCN1CCCC1 | inconclusive: 29.9%
47 | O=C(O)CN1C(=O)C(=O)N(Cc2cccc(F)c2)C1=O | inconclusive: -1.9%
48 | CC(NC(=O)C1CC1)c1ccc(-c2ccccc2)cc1 (stereo unspecified) | inconclusive: -36.2%
49 | CC1=NN(Cc2cc(C(C)(C)C)c(O)c(C(C)(C)C)c2)C(=O)C1 | inconclusive: 2.7%
50 | CC(C)(C)OC(=O)NCCCCCc1nnc(SCc2ccc(F)cc2)o1 | inconclusive: 7.8%
51 | O=C(NC1CC2CCC1C2)c1ccc(CN2CCOCC2)cc1 (stereo unspecified) | inconclusive: -16.4%
52 | Fc1ccc(N2CCN(c3cnc4ccccc4n3)CC2)cc1 | inconclusive: -28.1%
53 | CS(=O)(=O)N(CC(=O)N1CCCCCC1)c1cccc(F)c1 | inconclusive: 35.7%
54 | O=S(=O)(Nc1ccc(Br)cc1)c1cccc2cccnc12 | inconclusive: 1.1%
55 | COc1ccc(N2CCN(CC(O)COc3ccc(C)cc3C)CC2)cc1 (stereo unspecified) | inconclusive: -24.4%
56 | OCCOc1ccc(CN2CCN(CCCc3ccccc3)C(CCO)C2)cc1 (stereo unspecified) | inconclusive: -15.3%
57 | C=CCOc1c(Br)cc(CNn2nnnc2N)cc1OCC | inconclusive: -4.6%
58 | CN(C)CCN(CC1CCCN(Cc2ccccc2F)C1)C(=O)c1ccc(Cl)cc1 (stereo unspecified) | active: 44.5%
59 | Cc1cc(C)c(S(=O)(=O)N2CCCc3ccccc32)c(C)c1 | inconclusive: -16.5%
60 | CC(C)OC(=O)CSc1nc2cccnc2n1C1CCCCC1 | inconclusive: 8.2%
61 | Nc1nc(N)c(N=Nc2ccc(SCC(=O)O)cc2)c(=O)[nH]1 | inconclusive: 11.6%

Shown as tab-separated lines: 18 of the compounds above.
Row	Compound	inhibition
1	CCOc1ccc(C(=O)N2CCN(c3ccccn3)CC2)cc1OCC	inconclusive: -15.8%
7	COc1cc(N2CCCC2)c(OC)cc1/C=C1/NC(=S)NC1=O	inconclusive: -18.4%
10	O=C(COc1ccccc1)NCC(=O)N1CCCCCC1	inactive: 0.6%
18	COc1cccc(C(=O)C(C#N)=C(SC)SC)c1	inconclusive: 58.9%
25	O=C(NCCc1cnc[nH]1)c1ccc(-c2ccccc2)cc1	inactive: 16.1%
26	Cc1nc(C)n(CC(=O)c2ccc(Cl)cc2Cl)n1	inconclusive: 37.3%
29	Cc1cccc(C(=O)c2cnc3ccccc3c2-c2ccccc2)c1	inactive: -10%
31	CCCOc1ccc(Cn2c(=O)oc3ccc(C)cc32)cc1	inactive: -8.4%
36	Cc1ccccc1OCC(=O)N/N=C/c1cn(C)c2ccccc12	inconclusive: -156%
41	CC(=O)c1cccc(CN(C)CC2CCCN(CCc3ccccc3C)C2)c1 (stereo unspecified)	inconclusive: 2.3%
45	Cc1ccc(CNCc2ccc3c(c2)OCO3)cc1	inconclusive: -22.4%
49	CC1=NN(Cc2cc(C(C)(C)C)c(O)c(C(C)(C)C)c2)C(=O)C1	inconclusive: 2.7%
50	CC(C)(C)OC(=O)NCCCCCc1nnc(SCc2ccc(F)cc2)o1	inconclusive: 7.8%
51	O=C(NC1CC2CCC1C2)c1ccc(CN2CCOCC2)cc1 (stereo unspecified)	inconclusive: -16.4%
52	Fc1ccc(N2CCN(c3cnc4ccccc4n3)CC2)cc1	inconclusive: -28.1%
54	O=S(=O)(Nc1ccc(Br)cc1)c1cccc2cccnc12	inconclusive: 1.1%
55	COc1ccc(N2CCN(CC(O)COc3ccc(C)cc3C)CC2)cc1 (stereo unspecified)	inconclusive: -24.4%
58	CN(C)CCN(CC1CCCN(Cc2ccccc2F)C1)C(=O)c1ccc(Cl)cc1 (stereo unspecified)	active: 44.5%

Source: PubChem BioAssay AID588497 (NMMLSC, 2011)
